Measured values published in PubChem BioAssay AID504444 (National Center for Advancing Translational Sciences (NCATS), 2011).
Out of some 360,000 compounds screened, about 7,500 (2.1%) were called active. Inconclusive means that the source gave no clear call. Such entries were picked first, then a sample of the others. Calls come from the whole dose curve; as a rule, active = well fitted inhibition curve with a large enough effect; inconclusive = small, poorly fitted or top-dose-only effect, or effect the other way; inactive = flat fitted curve, though single readings scatter. A potency beside an inconclusive call is a rough fit, not a confirmed value.

Assay: Nrf2 qHTS screen for inhibitors; note: nearly all actives have a fitted effect of over 60% in size
Conditions: A549 ARE-Fluc reporter, luciferase luminescence, 18-24 h; activity change, negative = inhibition: at 46 µM (top of the series)
How it was run: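 Two sequential reads on A549 ARE_Fluc cells exposed to compound for 18-24 h: a CellTiter-Fluor fluorescence read for viability, then a luciferase luminescence read for Nrf2/ARE activity.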
% is set by controls: 0 for no effect and ±100 for the full control effect; potency is the fitted concentration of half-maximal effect.

Row | SMILES | Potency | activity change, negative = inhibition
1 | COc1ccccc1-c1nnc(NC(=O)c2ccc(S(=O)(=O)N3CCOCC3)cc2)o1 | inconclusive: 18.4 µM [falling, single point] | 
2 | C[C@@H](C(=O)NCc1c(F)cccc1Cl)N1C(=O)N2CCc3c([nH]c4ccccc34)[C@@]2(C)C1=O | inconclusive: 29.1 µM [falling, single point] | 
3 | CC(=O)Nc1nc2ccc(Br)cc2s1 | inconclusive: 2.59 µM [activator, full curve] | 
4 | O=C(c1cc(C2CC2)nn1-c1ccccc1)N1CCN(Cc2ccc(Cl)cc2)CC1 | inconclusive: 32.6 µM [falling, single point] | 
5 | S=c1[nH]nc(COc2ccccc2)n1/N=C/c1c(Cl)cccc1Cl | inconclusive: 29.1 µM [falling, single point] | 
6 | CC(=O)C1=C(C)N(Cc2ccccc2)C(=O)N[C@H]1c1cccc(C(F)(F)F)c1 | inconclusive: 20.6 µM [falling, single point] | 
7 | Cc1nn2c(N3CCN(c4ccccn4)CC3)cc(C(C)C)nc2c1-c1ccccc1 |  | inactive: -15.7%
8 | O=C(Nc1ccc2nc(-c3ccccc3)[nH]c2c1)c1ccco1 | inconclusive: 9.2 µM [falling, partial curve] | 
9 | CC(NC(=O)c1ccc2c(c1)sc1nc(-c3ccccc3)cn12)C12CC3CC(CC(C3)C1)C2 (stereo unspecified) |  | inactive: -1.99%
10 | CCOC(=O)c1[nH]c(C)c(C(=O)NC2CCCCCC2)c1C | inconclusive: 1.16 µM [activator, full curve] | 
11 | CC(C)(C)C(=O)Nc1cc(S(=O)(=O)N2CCCCC2)ccc1N1CCCCC1 | inconclusive: 29.1 µM [falling, single point] | 
12 | O=C1CCCN1CCCNc1nc2c(S(=O)(=O)c3ccccc3)nnn2c2ccc(Cl)cc12 | inconclusive: 13 µM [falling, partial curve] | 
13 | CC(C(=O)N1CCCCC1)n1sc2ccccc2c1=O (stereo unspecified) | inconclusive: 6.51 µM [activator, partial curve] | 
14 | O=C(OCc1ccccc1)N1CCC2CC1c1cc(-c3ccc4c(c3)OCO4)ccc12 (stereo unspecified) | inconclusive: 9.2 µM [activator, partial curve, poor fit] | 
15 | Cc1ccc(-n2c(N)c(-c3nc4ccccc4n3C)sc2=S)cc1 | inconclusive: 4.61 µM [activator, single point] | 
16 | Cc1cc(C(=O)O/N=C(\N)c2ccc(C(C)(C)C)cc2)no1 | inconclusive: 2.31 µM [activator, single point] | 
17 | O=C(CNC(=O)c1cccs1)c1ccc(F)cc1 | inconclusive: 0.058 µM [activator, full curve, poor fit] | 
18 | CCCOc1ccc(CSc2ncn[nH]2)cc1 | inconclusive: 9.2 µM [activator, partial curve, poor fit] | 
19 | Cc1ccc(Cl)cc1NC(=O)c1ccc(Cn2cc(Cl)cn2)cc1 | inconclusive: 18.4 µM [falling, single point] | 
20 | CCOC(=O)c1c(C)[nH]c(C(=O)CN2CCN(CC)CC2)c1C |  | inactive: -15.5%
21 | Cc1ccnc(NC(=O)CSc2cc(=O)n(C)c3ccccc23)c1 | inconclusive: 23.1 µM [falling, partial curve, poor fit] | 
22 | CCCn1c2ccccc2c2nnc(SCC(=O)OC)nc21 | inconclusive: 2.91 µM [falling, partial curve] | 

Random excerpt: two compounds from above, in no set order.
Row | SMILES | Potency | activity change, negative = inhibition
20 | CCOC(=O)c1c(C)[nH]c(C(=O)CN2CCN(CC)CC2)c1C |  | inactive: -15.5%
15 | Cc1ccc(-n2c(N)c(-c3nc4ccccc4n3C)sc2=S)cc1 | inconclusive: 4.61 µM [activator, single point] | 

Further compounds.

Row | SMILES | Potency | activity change, negative = inhibition
23 | CCn1ncc(NC(=S)NCCc2ccccc2)c1C(N)=O | inconclusive: 29.1 µM [activator, single point] | 
24 | Cc1cc(=O)n2c(nc3ccccc32)[nH]1 |  | inactive: 18.4%
25 | COCCNC(=O)CN1C(=O)c2cccnc2Oc2ccc(Cl)cc21 | inconclusive: 29.1 µM [activator, single point] | 
26 | O=C(Cn1nc2ccccc2n1)N/N=C/c1cc([N+](=O)[O-])ccc1O | inconclusive: 29.1 µM [falling, single point] | 
27 | Cc1ccc(S(=O)(=O)N(CCc2ccccc2)CC(=O)Nc2ccc(Br)cc2)cc1 | inconclusive: 29.1 µM [falling, single point] | 
28 | Cc1nc(C(=O)NNC(=O)c2cccc(Cl)c2)c(C(F)(F)F)o1 | inconclusive: 8.2 µM [falling, single point] | 
29 | NC(=O)c1ccsc1NC(=O)CSc1nnc(Nc2ccccc2)s1 | inconclusive: 18.4 µM [falling, partial curve, poor fit] | 
30 | CCOc1ccc(NC(=O)N2CCN3CCCCC3C2)cc1 (stereo unspecified) |  | inactive: 21.4%
31 | CN(Cc1ccccc1)c1oc(COc2ccccc2F)nc1C#N | inconclusive: 18.4 µM [falling, single point] | 
32 | COc1ccc(S(=O)(=O)NCc2nc3nc(C)cc(C)n3n2)cc1OC | inactive | 
33 | CC1(C)C/C(=N/Nc2ccc([N+](=O)[O-])cc2[N+](=O)[O-])C(C)(C)O1 | inconclusive: 11.6 µM [falling, partial curve, poor fit] | 
34 | CCN(CC)S(=O)(=O)c1cc(NC(=O)Cc2ccsc2)ccc1C | inconclusive: 18.4 µM [falling, partial curve] | 
35 | O=C(c1ccc(Cl)c(S(=O)(=O)N2CCCCC2)c1)N1CCCCCC1 |  | inactive: -1.18%
36 | O=C(Nc1ccc(Cl)cc1)c1sccc1-n1cccc1 | inconclusive: 29.1 µM [activator, single point] | 
37 | O=C(NCc1ccco1)c1sc2cccc(F)c2c1Cl | inconclusive: 7.31 µM [activator, single point] | 
38 | CCOC(=O)COn1c(=O)c(-c2cc3ccccc3o2)[n+]([O-])c2ccccc21 | inconclusive: 5.17 µM [activator, partial curve] | 
39 | CCOC(=O)c1nnn(-c2nonc2N)c1-c1ccccc1Cl | inconclusive: 4.61 µM [falling, full curve] | 
40 | Cc1cc2cc(C#N)c(N3CCN(S(C)(=O)=O)CC3)nc2cc1C | inconclusive: 23.1 µM [falling, single point] | 
41 | CCc1nn(CC(=O)Nc2ccc(NC(C)=O)cc2)c(=O)c2cc3sccc3n12 |  | inactive: 12.1%
42 | Cc1ccc(C(=O)CN2C(=O)c3ccccc3S2(=O)=O)cc1 | active: 20.6 µM | 
43 | COC(=O)C1=C(C)N(Cc2ccccc2)C(=NCc2cccc(Cl)c2)N[C@H]1c1cccc(F)c1 | inconclusive: 29.1 µM [falling, single point] | 
44 | Cc1ccc(C)c(S(=O)(=O)N2CCN(C(=O)Nc3ccccc3)CC2)c1 |  | inactive: -16.1%

Row | SMILES | Potency | activity change, negative = inhibition
45 | CC1(c2ccc3ccccc3c2)NC(=O)N(CC(=O)N2CCN(S(=O)(=O)c3ccccc3F)CC2)C1=O (stereo unspecified) | inconclusive: 20.6 µM [falling, partial curve] | 
46 | CN(C)C(=O)c1cc([N+](=O)[O-])ccc1O |  | inactive: 10.3%
47 | CC(C)CNc1nc(N)c([N+](=O)[O-])c(N2CCCCCC2)n1 | active: 9.2 µM | 
48 | Cc1ccc(-c2nc(CC(=O)Nc3cccc(S(=O)(=O)NC4=NCCC4)c3)cs2)cc1 | inconclusive: 20.6 µM [falling, partial curve] | 
49 | COc1cc2nc(NC(=O)c3ccc(Cl)cc3)[nH]c(=O)c2cc1OC | inconclusive: 2.59 µM [falling, full curve, poor fit] | 
50 | CC(=O)NN1C(=O)c2ccccc2NC1c1ccccc1 (stereo unspecified) | inconclusive: 20.6 µM [falling, single point] | 
51 | c1cncc(-c2nc(N3CCOCC3)c3ccccc3n2)c1 | inconclusive: 0.58 µM [falling, full curve, poor fit] | 
52 | O=[N+]([O-])c1cc(-c2nc(-c3ccccc3)no2)ccc1N1CCOCC1 | active: 23.1 µM | 
53 | CCc1ccccc1NC(=O)Cn1c(SCc2ccc(F)cc2)nc2ccncc21 | inconclusive: 11.6 µM [activator, partial curve] | 
54 | CC1=C(C(=O)NC2CCCc3c2cnn3-c2ccc(F)cc2F)OCCO1 (stereo unspecified) | inconclusive: 13 µM [falling, partial curve] | 
55 | CCOC(=O)N1CCC(O)(c2cc(C)c(C)cc2C)CC1 | inconclusive: 20.6 µM [falling, partial curve, poor fit] | 
56 | Cc1c(CC(=O)NCCCCCC(=O)O)c(=O)oc2cc3c(cc12)CCC(C)(C)O3 | active: 10.3 µM | 
57 | O=C(Nc1ccc(NC(=O)c2cc([N+](=O)[O-])ccc2N2CCOCC2)cc1)c1cccs1 | inconclusive: 16.4 µM [falling, single point] | 
58 | COc1ccc(-c2nc(CNS(=O)(=O)c3cccc(F)c3)cs2)cc1 | inconclusive: 20.6 µM [falling, single point] | 
59 | O=C(Nc1ccccc1N1CCN(C(=O)c2ccccc2)CC1)c1ccc(Br)o1 | inconclusive: 18.4 µM [falling, single point] | 
60 | CCCCCN1C=CC(=C2C(=O)c3ccccc3C2=O)C=C1 | active: 9.2 µM | 
61 | O=C(CCCN1C(=O)/C(=C/c2ccccc2)SC1=S)N1CCOCC1 | inconclusive: 18.4 µM [activator, single point] | 
62 | COC(=O)c1cnn(-c2cc(Oc3cccc(C)c3)ncn2)c1N | inconclusive: 0.461 µM [activator, full curve, poor fit] | 
63 | CC(C)c1ccc(/C=N/N2CCCCC2)cc1 | inconclusive: 2.31 µM [activator, full curve] | 
64 | Nc1scc(-c2ccncc2)c1Cl | inconclusive: 0.326 µM [activator, partial curve, poor fit] | 
65 | Cc1ccc(NS(=O)(=O)c2ccc3c(c2)N(C)C(=O)CC(=O)N3C)cc1Cl | inconclusive: 7.31 µM [falling, single point] | 
66 | CCO[C@H]1OC(C(=O)NCc2nc3ccccc3[nH]2)=C[C@@H](c2ccc(C(F)(F)F)cc2)[C@@H]1CCCO | inconclusive: 18.4 µM [falling, partial curve] | 
